HELM strings list residues between dots; [ac] is acetyl, [am] amide, other brackets name non-standard units.
Assay: peptide synthesis
Conditions: whole synthesis

PEPTIDE1{M.F.Y.P.D.S.R.C.R.G.P.S.E.T}$$$$V2.0
final HPLC purity: 95.15%

Reference: patent publication US20230364204A1 (priority 2022, published 2023)
